Data reported in US20050106141A1, “Hairless protein-interacting partner complexes and methods thereof for the beautification and/or improvement of mammalian skin” (The Procter & Gamble Company, priority 2003, published 2005).
Some results were stated once for a whole list of compounds, not compound by compound. For at least one compound, name, drawing or mass did not settle the structure.

Biological target: T1, BD-VDR><AD-HRt interaction (Mus musculus, UniProt P48281)
T1 construct: expressed in transfected cells
T1 sequence (P48281 1-422): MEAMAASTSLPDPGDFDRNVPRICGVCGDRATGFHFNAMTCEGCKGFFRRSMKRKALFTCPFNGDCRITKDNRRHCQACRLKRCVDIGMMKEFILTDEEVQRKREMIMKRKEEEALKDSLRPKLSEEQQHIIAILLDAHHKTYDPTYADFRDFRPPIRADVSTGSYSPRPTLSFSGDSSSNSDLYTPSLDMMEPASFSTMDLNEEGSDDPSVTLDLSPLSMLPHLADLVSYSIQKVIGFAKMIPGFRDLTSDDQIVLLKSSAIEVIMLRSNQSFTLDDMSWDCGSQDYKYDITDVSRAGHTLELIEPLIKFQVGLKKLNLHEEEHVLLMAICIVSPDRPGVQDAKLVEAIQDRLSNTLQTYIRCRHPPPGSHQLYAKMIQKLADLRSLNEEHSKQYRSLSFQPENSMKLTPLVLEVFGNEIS
T1 sequence (Q61645 490-1182 partner limits assumed): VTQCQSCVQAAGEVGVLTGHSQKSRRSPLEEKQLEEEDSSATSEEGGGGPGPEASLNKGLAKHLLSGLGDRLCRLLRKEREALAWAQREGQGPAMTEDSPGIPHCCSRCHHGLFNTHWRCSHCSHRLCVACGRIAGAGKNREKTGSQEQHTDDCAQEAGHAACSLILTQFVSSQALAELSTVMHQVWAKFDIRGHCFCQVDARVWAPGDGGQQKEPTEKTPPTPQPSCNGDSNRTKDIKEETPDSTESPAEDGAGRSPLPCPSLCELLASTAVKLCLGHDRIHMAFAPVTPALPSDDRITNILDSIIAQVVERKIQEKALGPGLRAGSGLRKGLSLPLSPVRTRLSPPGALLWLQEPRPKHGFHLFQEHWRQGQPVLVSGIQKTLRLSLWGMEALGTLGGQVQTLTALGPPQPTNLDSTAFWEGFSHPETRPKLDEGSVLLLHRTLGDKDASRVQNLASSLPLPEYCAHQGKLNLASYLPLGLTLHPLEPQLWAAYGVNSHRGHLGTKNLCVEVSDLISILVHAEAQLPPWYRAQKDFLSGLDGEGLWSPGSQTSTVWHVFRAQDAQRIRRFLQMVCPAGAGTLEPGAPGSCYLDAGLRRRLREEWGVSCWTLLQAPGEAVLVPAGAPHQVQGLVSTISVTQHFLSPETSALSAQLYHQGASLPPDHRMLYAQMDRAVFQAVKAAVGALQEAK
Test: Yeast two-hybrid alpha-galactosidase reporter assay, BD-VDR interaction with AD-HRt
Format: cell-based
Conditions: tested at sub-micromolar concentrations; assay of example 3

For `C=C1CC[C@H](O)C/C1=C/C=C1\CCC[C@]2(C)[C@@H]([C@H](C)CCCC(C)(C)O)CC[C@@H]12` [25 HC, 25-hydroxy cholecalciferol], the “enhancement of BD-VDR / AD-HRt interaction” value was “over 3 fold”.
